Data as given in PubChem BioAssay AID743266 (National Center for Advancing Translational Sciences (NCATS), 2014).
The campaign covered roughly 410,000 compounds. About 310 (0.076%) were called active. This list was built around the results that the source calls inconclusive (neither active nor inactive); the mix of calls is not that of the screen. Calls follow the shape of the dose curve; as a rule, active = well fitted activation curve with a large enough effect; inconclusive = small, poorly fitted or top-dose-only effect, or another doubt; inactive = no such curve, though single readings can be large or run the other way. A potency beside an inconclusive call is a rough fit, not a confirmed value.

Sequences of proteins named here, by UniProt entry; tags and fusion partners are left off. A change or cut given only in a name is not applied to a line headed by its entry.
UniProt Q03431: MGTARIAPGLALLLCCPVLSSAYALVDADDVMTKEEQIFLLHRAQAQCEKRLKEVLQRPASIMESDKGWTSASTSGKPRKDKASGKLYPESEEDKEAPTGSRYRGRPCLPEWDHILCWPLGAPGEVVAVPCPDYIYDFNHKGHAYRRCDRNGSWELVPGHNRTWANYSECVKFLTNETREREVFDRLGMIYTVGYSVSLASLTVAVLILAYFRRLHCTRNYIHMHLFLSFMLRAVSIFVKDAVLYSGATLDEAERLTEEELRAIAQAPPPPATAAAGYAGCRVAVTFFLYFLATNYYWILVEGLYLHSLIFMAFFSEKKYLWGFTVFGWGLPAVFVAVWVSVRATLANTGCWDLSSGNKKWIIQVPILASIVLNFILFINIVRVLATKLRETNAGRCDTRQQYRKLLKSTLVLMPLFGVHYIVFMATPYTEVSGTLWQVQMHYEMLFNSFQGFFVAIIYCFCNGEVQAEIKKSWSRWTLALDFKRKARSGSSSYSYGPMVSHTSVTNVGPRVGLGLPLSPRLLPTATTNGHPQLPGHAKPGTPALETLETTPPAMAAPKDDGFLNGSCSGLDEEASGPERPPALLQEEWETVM

Target: Parathyroid hormone/parathyroid hormone-related peptide receptor (Homo sapiens) (UniProt Q03431)
Assay: qHTS for PTHR1 Agonists: Primary Screen; also: nearly all actives have a fitted effect of over 55% in size
Details: HEK293 GP2 PTHR1 cells, GloSensor cAMP luminescence, 1 h; activation: at 115 µM (top of the series) unless noted; series mostly up to 115 µM
Procedure, shortened: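 HEK-293-derived GP2 cells expressing PTHR1 and a GloSensor cAMP reporter, 3,000/well, plated overnight, given luciferin plus IBMX (each 0.5 mM as added) for 1 h at 37 °C, then compound for 1 h at 37 °C. Luminescence was read after 15 min at room temperature.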
Potency is read from the fitted curve at half-maximal effect.

Potency, inactive:
COc1ccc(C(CNC(=O)c2oc3ccccc3c2C)N2CCCC2)cc1 (stereo unspecified), COc1ccc(-c2oc3ncn4nc(-c5ccc(Cl)cc5)nc4c3c2-c2ccc(OC)cc2)cc1, COc1cccc(C(=O)N2c3ccccc3Sc3ccccc32)c1, O=C(Nc1ccccc1)c1cccc(C(F)(F)F)c1, COc1ccc(S(=O)(=O)N(CC(=O)Nc2ccc(OC)cc2OC)c2ccc(Cl)cc2)cc1, COc1ccc(/[N+]([O-])=C/c2ccoc2)cc1, c1ccc(CN2CCN(CCN3CCn4c3nc3ccccc34)CC2)cc1, CC(c1ccccc1C(=O)O)c1cc(F)cc2ccccc12 (stereo unspecified), C=Cc1ccc(C2=CC(=O)C[C@H](c3ccc(OC)cc3)C2)cc1, c1cnc(SCCOc2cccc3ccccc23)nc1, Cn1c(=O)c([N+](=O)[O-])c(NCCc2ccccc2)c2ccccc21, CCC(=O)NC(c1ccc(OC)cc1)c1c(O)ccc2ccccc12 (stereo unspecified), Cc1cccn2c(=O)c3cc(C(=O)NC4CCS(=O)(=O)C4)n(Cc4ccccc4)c3nc12 (stereo unspecified), Cn1cc(CN2CCC(C(=O)NC(c3ccc(-c4ccccc4)cc3)c3cnccn3)CC2)c2ccccc21 (stereo unspecified), COc1ccc(Nc2nc(N3CCCCC3)c3ccccc3n2)cc1, COC(=O)c1c(N)sc(Cc2ccccc2)c1C, CN1C(=O)/C(=C\c2ccc(N(C)C)cc2)OC1=S, NC(=O)c1c(NC(=O)CN2CCOCC2)sc2c1CCC2, Fc1ccc(C2=Nc3cccc4cccc(c34)N2)cc1, Fc1ccc(Nc2nc(SCc3ccccc3F)nc3ccccc23)cc1, CN(C)S(=O)(=O)c1ccc2c(c1)N(CC(=O)Nc1ccc(F)cc1)C(=O)CS2, O=C(NCc1ccco1)c1ccc(N2CCCC2=O)cc1, Brc1ccccc1-c1nnc(-c2cccnc2)o1, CCOC(=O)Cc1csc(NC(=O)CSc2nnnn2-c2ccc(F)cc2)n1

Potency, inconclusive:
CC1CC(C)CN(CCCNC(=O)C2CCCN(S(=O)(=O)N3CC(C)CC(C)C3)C2)C1 (stereo unspecified) 44.7 µM [activator, partial curve, poor fit], Cc1ccc(OC(=O)c2snnc2C)cc1C 126 µM [activator, single point], CCCCN(C(=O)C1CCN(C(=O)c2ccccc2C)CC1)c1c(N)n(CCC)c(=O)[nH]c1=O 14.1 µM [activator, single point], Cc1ccc(C)c(NC(=O)Cn2c(=O)n(-c3ccccc3C)c(=O)c3c2c2cc(C)ccc2n3C)c1 79.4 µM [activator, partial curve, poor fit], O=C(Nc1cccnc1)OCc1ccccc1 0.767 µM [activator, full curve, poor fit], Cc1ccc(Cn2nnc3c(=O)[nH]c(C4CCN(C(=O)c5cccs5)CC4)nc32)cc1 31.6 µM [activator, partial curve, poor fit], O=C(N/N=C/c1cn(Cc2cccc(F)c2)c2ccccc12)c1cc(O)cc(O)c1 44.7 µM [activator, partial curve, poor fit], O=C(COC(=O)CCc1c[nH]c2ccccc12)NCCc1ccccc1 112 µM [activator, partial curve, poor fit], CN(C)CCNc1ncnc2oc(-c3ccccc3)c(-c3ccccc3)c12 22.4 µM [activator, partial curve, poor fit], C[C@@H]1CN[C@H](CCO)/C1=C\c1ccccc1 141 µM [activator, single point], Cc1nnc(NC(=O)C(C)Sc2nnc(CNC(=O)c3ccccc3F)n2C)s1 (stereo unspecified) 6.31 µM [activator, full curve, poor fit], CCCN(CCC)CCNS(=O)(=O)c1ccc2c(c1)oc(=O)n2C 44.7 µM [activator, single point], O=C(Nc1ccc2[nH]c(=O)c(=O)[nH]c2c1)c1cccc(F)c1 100 µM [activator, partial curve, poor fit], Cc1ccccc1C1=CCN(c2ncc(NC(=O)c3ccc(Cl)cc3)cc2C(=O)O)CC1 126 µM [activator, single point], CCOc1ccc2nc(SCC(=O)NCc3ccc(S(N)(=O)=O)cc3)[nH]c2c1 355 µM [activator, partial curve, poor fit], Cc1ccc(C)c(C(=O)CCC(=O)OCn2nnc3ccccc3c2=O)c1 3.16 µM [activator, partial curve, poor fit], COc1ccc(NC(=O)COC(=O)c2cccc(S(=O)(=O)N3CCCCC3)c2)c(OC)c1 79.4 µM [activator, partial curve, poor fit], CC(OC(=O)/C=C/c1cccs1)C(=O)Nc1ccc(C(N)=O)cc1 (stereo unspecified) 15.8 µM [activator, partial curve], COc1ccc(N2CCN(C(=O)[C@@H]3CCCN3C3=NS(=O)(=O)c4ccccc43)CC2)cc1 2.51 µM [activator, full curve, poor fit], COCc1c(C(=O)N/N=C(/C)c2ccccc2)nnn1-c1nonc1N 79.4 µM [activator, single point], CC(C)CN(C(=O)CSc1nc2ccccc2c(=O)[nH]1)c1c(N)n(CC(C)C)c(=O)[nH]c1=O 6.31 µM [activator, partial curve, poor fit], C/C(=N\NC(=O)c1nnn(-c2nonc2N)c1-c1ccccc1)c1ccccc1O 141 µM [activator, single point], Cc1cc(=O)oc2cc(OCC(=O)NCC3CCC(C(=O)O)CC3)ccc12 (stereo unspecified) 39.8 µM [activator, single point], Cc1cc(=O)nc2c3ccccc3n(CC(=O)NCCCN3CCCC3=O)n12 126 µM [activator, single point], O=C(O)COc1ccc2nsnc2c1Cl 50.1 µM [activator, partial curve, poor fit], COc1ccc2cc(C(=O)C3CCCN(C(=O)c4ccnn4C)C3)ccc2c1 (stereo unspecified) 100 µM [activator, single point], O=C(c1ccc2snnc2c1)N1CCN(c2ccccc2)CC1 39.8 µM [activator, single point], CNC(=O)CN(C)S(=O)(=O)c1ccc(F)cc1 22.4 µM [activator, partial curve, poor fit], Nc1nc2ccccc2nc1N1CCCC1 3.98 µM [activator, full curve, poor fit], Cc1ccc(NC(=O)CCC(C(=O)O)N2C(=O)c3ccccc3C2=O)cc1 (stereo unspecified) 3.55 µM [activator, partial curve, poor fit], Cc1c(NC(=O)C(C)Oc2cccc(F)c2)c(=O)n(-c2ccccc2)n1C (stereo unspecified) 50.1 µM [activator, partial curve, poor fit]

activation, inconclusive:
COc1cccc(CN(C(=O)COc2ccccc2[N+](=O)[O-])C2CCS(=O)(=O)C2)c1 (stereo unspecified) 30.4% [activator], O=C(N/C(=C/c1ccco1)C(=O)N1CCCCCC1)c1cccs1 45.7% [activator] [at 57.5 µM], Cc1ccc(C(=O)CC2(O)C(=O)N(Cc3ccccc3)c3ccccc32)o1 (stereo unspecified) -45.8% [activator] [at 57.5 µM], Cc1ccc(/C=C/C(=O)N2CCCC(C(N)=O)C2)o1 (stereo unspecified) 51% [activator], CCOc1ccccc1Nc1ncnc2ccc(Br)cc12 63.2% [activator], COc1ccccc1C(=O)NC(=S)Nc1ccc(N2CCOCC2)cc1 -45.9% [activator], Nn1c(-c2cccc(Br)c2)n[nH]c1=S -44.4% [activator] [at 57.5 µM], CCC(CC)C(=O)Nc1c(C(=O)N2CCN(c3ccccc3)CC2)oc2ccccc12 -51.6% [activator], O=C(O)CC1(Cc2nc(-c3cccs3)no2)CCCC1 38.3% [activator], Cc1[nH]c(C)c(S(=O)(=O)NCc2ccc(F)cc2)c1C(=O)N1CCCC1 33.4% [activator], Cc1cccc(N2CCN(C(=O)c3[nH]c(C(F)(F)F)nc3-c3ccccc3)CC2)c1C -85% [activator], Cc1cccc(CN2C(=O)NC(c3ccccc3)(c3ccccc3)C2=O)c1 -71.6% [activator], Cn1nc(C(F)(F)F)c(-c2ccc(Br)cc2)c1NC(=O)CSCC(=O)O 28.7% [activator], COc1cc2c(cc1NC(=O)c1ccc(C)c([N+](=O)[O-])c1)oc1ccccc12 -21.4% [activator], O=c1oc(-c2ccccc2NS(=O)(=O)c2ccc(F)cc2)nc2ccccc12 30.4% [activator], CN1CCN(C(=O)c2cnn(-c3ccccc3)c2C2CCN(C(=O)OC(C)(C)C)CC2)CC1 31.2% [activator]
